Experimental data: PubChem BioAssay AID504774 (Drosophila RNAi Screening Center, 2011)

Assay: 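Knock-downs that shift viability of MMS-exposed cells relative to untreated ones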 (primary screen)
System: Drosophila Kc167 cells
Knock-down reagent: long dsRNA against Drosophila genes, about 0.25 µg dsRNA per well
Duration: about 6 days: 3 days knock-down, then 3 days with or without MMS
Treatment: methyl methanesulphonate 0.004% (w/v) for 3 days after knock-down
Read-out: 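ATP-dependent luminescence as a measure of live cells in MMS-exposed wells, quantile normalised within each plate, with replicate values also given as a mean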
Reading the numbers: mean viability with MMS: higher = more surviving cells after MMS
The deposit covers about 23,000 reagents; shown is a random part of those that have a named target and a result. 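Values are quantile-normalised luminescence on an arbitrary scale; higher means more cells surviving MMS.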 The numbers tell different reagents against one gene apart. A plus sign joins genes that one reagent is predicted to hit. Further read-outs or replicates are left out here.

| mean viability with MMS | gene | reagent |
| --- | --- | --- |
| 3.42e6 | Brf | 1 |
| 3.36e6 | Brf | 2 |
| 3.38e6 | Brf | 3 |
| 3.51e6 | Atg12 | 1 |
| 3.63e6 | CG12860 | 1 |
| 3.01e6 | ind | 1 |
| 3.51e6 | ind | 2 |
| 3.54e6 | Tusp | 1 |
| 3.20e6 | dnc | 1 |
| 3.52e6 | dnc | 2 |
| 3.47e6 | dnc | 3 |
| 3.57e6 | dnc | 4 |
| 3.35e6 | dnc | 5 |
| 3.27e6 | CG1578 | 1 |
| 3.81e6 | CCHa2 | 1 |
| 3.14e6 | CG42724 | 1 |
| 2.55e6 | CG42724 | 2 |
| 3.51e6 | PH4alphaPV | 1 |
| 3.78e6 | sand | 1 |
| 3.57e6 | CG3916 | 1 |
| 3.28e6 | kz | 1 |
| 3.48e6 | Pkn | 1 |
| 3.55e6 | Pkn | 2 |
| 3.57e6 | Lip2 | 1 |
| 3.52e6 | Lip2 | 2 |
| 3.99e6 | Ets98B | 1 |
| 3.71e6 | CG10051 | 1 |
| 3.57e6 | CG31460 | 1 |
| 3.51e6 | Csl4 | 1 |
| 3.38e6 | Csl4 | 2 |
| 3.53e6 | ago | 1 |
| 3.42e6 | Obp47a | 1 |
| 3.54e6 | CG18748 | 1 |
| 3.45e6 | wa-cup | 1 |
| 3.53e6 | CG1416 | 1 |
| 3.34e6 | CG15435 | 1 |
| 3.62e6 | Obp99d | 1 |
| 3.19e6 | ctrip | 1 |
| 3.07e6 | ctrip | 2 |
| 2.86e6 | ctrip | 3 |
| 3.52e6 | Cdep | 1 |
| 3.49e6 | Cdep | 2 |
| 3.28e6 | Cdep | 3 |
| 3.47e6 | GLS | 1 |
| 3.55e6 | CG8531 | 1 |
| 3.65e6 | CG9173 | 1 |
| 3.54e6 | CG31128 | 1 |
| 3.45e6 | Mvk + CG33672 + spt4 | 1 |
| 3.46e6 | Mvk + CG33672 + spt4 | 2 |
| 3.71e6 | elm | 1 |
| 3.69e6 | Hsp60C | 1 |
| 3.68e6 | Ptp69D | 1 |
| 3.61e6 | msb1l | 1 |
| 3.40e6 | CG33491 (retired record) + CG33496 (retired record) + CG33487 (retired record) + 1 more | 1 |
| 3.65e6 | CG31804 | 1 |
| 3.61e6 | Arl5 | 1 |
| 3.67e6 | Vsx1 | 1 |
| 3.16e6 | Vsx1 | 2 |
| 3.66e6 | Vsx1 | 3 |
| 3.41e6 | Pdxk | 1 |
| 3.55e6 | CG4891 | 1 |
| 3.32e6 | eIF2Bepsilon | 1 |
| 3.45e6 | CG14406 | 1 |
| 3.48e6 | CG13082 | 1 |
| 3.84e6 | CG14135 | 1 |
| 3.72e6 | CG8155 | 1 |
| 3.40e6 | CG8155 | 2 |
| 3.79e6 | CG8320 + ATPCL | 1 |

Already shown: an excerpt of the list.
| mean viability with MMS | gene | reagent |
| --- | --- | --- |
| 3.28e6 | kz | 1 |
| 3.48e6 | Pkn | 1 |
| 3.55e6 | Pkn | 2 |
| 3.57e6 | Lip2 | 1 |
